Laboratory results from the supplement of paper PMC10849652.
This is one part of the list.

Protein sequences, listed by entry. Tags and fused reporters are not part of them. Lines headed by an entry give the natural chain unless they say otherwise; changes in a name come on top.
UniProt Q9UGC7: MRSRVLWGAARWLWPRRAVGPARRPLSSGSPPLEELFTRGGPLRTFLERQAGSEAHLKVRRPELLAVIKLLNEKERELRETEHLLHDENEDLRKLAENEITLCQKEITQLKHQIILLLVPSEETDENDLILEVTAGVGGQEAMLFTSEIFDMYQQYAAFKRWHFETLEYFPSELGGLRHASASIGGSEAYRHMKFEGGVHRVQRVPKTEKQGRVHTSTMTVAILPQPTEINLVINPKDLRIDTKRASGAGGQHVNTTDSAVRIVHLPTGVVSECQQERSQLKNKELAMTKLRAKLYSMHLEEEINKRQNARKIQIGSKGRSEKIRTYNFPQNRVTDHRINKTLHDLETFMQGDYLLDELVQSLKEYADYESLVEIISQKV
UniProt Q9UM54, whole entry, looked up: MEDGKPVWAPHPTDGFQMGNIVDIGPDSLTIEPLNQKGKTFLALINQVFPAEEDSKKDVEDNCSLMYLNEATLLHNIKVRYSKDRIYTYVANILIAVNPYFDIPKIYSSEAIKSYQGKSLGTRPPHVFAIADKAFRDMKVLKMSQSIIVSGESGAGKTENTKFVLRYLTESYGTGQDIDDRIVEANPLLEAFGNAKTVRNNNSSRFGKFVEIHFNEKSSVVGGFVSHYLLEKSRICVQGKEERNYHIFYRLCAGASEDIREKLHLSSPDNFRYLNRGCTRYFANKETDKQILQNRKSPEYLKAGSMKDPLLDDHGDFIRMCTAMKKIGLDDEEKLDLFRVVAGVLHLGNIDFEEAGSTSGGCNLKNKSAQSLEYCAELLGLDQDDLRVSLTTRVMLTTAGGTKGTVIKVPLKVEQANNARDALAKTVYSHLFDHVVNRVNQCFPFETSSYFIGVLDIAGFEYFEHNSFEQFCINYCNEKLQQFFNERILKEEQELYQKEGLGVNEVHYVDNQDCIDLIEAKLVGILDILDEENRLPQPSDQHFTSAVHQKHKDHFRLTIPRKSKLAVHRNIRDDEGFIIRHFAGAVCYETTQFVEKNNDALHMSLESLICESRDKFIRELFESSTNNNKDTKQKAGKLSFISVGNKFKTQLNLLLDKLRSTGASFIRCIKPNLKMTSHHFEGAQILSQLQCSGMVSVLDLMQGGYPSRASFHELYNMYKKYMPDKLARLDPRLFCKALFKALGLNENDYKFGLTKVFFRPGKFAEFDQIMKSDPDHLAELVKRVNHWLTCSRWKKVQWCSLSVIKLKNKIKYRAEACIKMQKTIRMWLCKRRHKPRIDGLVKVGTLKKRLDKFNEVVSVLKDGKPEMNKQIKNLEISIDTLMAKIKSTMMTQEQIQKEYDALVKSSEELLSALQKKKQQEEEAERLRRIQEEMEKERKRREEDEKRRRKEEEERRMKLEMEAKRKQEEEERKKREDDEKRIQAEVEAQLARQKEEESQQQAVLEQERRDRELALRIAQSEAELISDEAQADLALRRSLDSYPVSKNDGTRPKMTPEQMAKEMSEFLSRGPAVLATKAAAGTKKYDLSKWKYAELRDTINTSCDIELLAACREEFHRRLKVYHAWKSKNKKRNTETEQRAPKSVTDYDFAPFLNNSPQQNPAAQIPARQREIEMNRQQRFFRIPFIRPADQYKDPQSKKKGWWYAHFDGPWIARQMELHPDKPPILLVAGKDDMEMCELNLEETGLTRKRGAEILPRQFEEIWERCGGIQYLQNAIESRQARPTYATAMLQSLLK
UniProt Q9BRK3: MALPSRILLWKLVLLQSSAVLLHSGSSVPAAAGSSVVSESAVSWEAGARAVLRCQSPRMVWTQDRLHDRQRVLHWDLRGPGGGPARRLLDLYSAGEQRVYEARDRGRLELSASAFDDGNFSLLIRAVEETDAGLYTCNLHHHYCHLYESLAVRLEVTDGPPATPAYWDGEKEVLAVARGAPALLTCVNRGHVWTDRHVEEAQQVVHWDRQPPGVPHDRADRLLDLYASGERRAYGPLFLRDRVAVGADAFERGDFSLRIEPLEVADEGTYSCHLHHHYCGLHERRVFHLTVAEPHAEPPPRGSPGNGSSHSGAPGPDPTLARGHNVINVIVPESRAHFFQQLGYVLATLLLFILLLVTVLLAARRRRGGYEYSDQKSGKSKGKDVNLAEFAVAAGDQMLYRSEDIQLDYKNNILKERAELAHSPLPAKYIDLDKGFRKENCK
UniProt Q9NXD2: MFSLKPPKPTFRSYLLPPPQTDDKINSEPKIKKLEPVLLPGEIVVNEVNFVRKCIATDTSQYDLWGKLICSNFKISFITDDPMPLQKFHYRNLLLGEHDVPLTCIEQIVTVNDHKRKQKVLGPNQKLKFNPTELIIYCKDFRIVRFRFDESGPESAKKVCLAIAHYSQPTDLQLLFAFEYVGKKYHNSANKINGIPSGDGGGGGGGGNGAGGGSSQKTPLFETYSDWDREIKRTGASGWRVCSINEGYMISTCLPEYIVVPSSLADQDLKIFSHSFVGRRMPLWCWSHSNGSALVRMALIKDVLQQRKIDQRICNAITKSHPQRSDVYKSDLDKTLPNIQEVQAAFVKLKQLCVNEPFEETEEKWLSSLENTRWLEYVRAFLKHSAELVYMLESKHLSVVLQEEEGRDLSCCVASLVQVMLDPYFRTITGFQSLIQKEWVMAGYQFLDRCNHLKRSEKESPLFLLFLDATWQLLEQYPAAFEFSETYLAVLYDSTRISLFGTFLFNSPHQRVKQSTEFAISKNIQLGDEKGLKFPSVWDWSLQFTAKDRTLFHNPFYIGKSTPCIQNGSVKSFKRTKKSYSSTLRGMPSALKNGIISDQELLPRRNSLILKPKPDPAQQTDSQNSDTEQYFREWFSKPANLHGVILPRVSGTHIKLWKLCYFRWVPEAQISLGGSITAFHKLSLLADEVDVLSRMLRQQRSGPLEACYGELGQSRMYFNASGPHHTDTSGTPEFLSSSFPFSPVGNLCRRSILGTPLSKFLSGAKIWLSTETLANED
UniProt Q8NCE2: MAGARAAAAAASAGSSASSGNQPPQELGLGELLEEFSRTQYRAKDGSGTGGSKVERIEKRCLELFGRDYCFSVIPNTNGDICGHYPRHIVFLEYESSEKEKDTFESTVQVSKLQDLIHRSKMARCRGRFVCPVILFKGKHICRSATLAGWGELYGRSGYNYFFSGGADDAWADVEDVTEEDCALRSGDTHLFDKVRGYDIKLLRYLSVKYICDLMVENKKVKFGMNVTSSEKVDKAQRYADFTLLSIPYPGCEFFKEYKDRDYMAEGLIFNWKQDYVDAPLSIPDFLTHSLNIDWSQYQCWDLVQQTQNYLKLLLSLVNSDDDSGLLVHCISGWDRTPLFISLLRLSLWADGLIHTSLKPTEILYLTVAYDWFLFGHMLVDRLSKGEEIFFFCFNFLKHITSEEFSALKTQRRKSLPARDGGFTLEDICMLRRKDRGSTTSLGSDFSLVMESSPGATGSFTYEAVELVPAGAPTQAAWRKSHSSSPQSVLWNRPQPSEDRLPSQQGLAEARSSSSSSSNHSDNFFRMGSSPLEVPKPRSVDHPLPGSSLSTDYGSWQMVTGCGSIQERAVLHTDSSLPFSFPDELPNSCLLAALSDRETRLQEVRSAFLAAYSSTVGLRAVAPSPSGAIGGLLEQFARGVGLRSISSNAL
UniProt P03897, whole entry, looked up: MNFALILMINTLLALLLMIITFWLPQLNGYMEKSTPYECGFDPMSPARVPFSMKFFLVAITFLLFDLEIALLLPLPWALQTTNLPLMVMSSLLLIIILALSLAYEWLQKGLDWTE
UniProt Q99417: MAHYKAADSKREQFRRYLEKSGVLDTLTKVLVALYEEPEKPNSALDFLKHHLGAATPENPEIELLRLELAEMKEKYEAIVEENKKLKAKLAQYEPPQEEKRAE
UniProt Q9H019: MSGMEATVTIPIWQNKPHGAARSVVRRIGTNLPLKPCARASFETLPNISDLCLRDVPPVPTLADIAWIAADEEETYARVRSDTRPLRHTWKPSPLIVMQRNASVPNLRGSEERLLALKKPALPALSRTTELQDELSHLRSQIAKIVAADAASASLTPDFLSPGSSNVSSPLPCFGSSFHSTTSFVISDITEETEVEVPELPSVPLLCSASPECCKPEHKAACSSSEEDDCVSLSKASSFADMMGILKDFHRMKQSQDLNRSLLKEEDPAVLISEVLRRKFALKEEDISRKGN
UniProt P13640: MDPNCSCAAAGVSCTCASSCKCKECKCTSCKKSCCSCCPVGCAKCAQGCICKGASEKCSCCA
UniProt Q7Z406, whole entry, looked up: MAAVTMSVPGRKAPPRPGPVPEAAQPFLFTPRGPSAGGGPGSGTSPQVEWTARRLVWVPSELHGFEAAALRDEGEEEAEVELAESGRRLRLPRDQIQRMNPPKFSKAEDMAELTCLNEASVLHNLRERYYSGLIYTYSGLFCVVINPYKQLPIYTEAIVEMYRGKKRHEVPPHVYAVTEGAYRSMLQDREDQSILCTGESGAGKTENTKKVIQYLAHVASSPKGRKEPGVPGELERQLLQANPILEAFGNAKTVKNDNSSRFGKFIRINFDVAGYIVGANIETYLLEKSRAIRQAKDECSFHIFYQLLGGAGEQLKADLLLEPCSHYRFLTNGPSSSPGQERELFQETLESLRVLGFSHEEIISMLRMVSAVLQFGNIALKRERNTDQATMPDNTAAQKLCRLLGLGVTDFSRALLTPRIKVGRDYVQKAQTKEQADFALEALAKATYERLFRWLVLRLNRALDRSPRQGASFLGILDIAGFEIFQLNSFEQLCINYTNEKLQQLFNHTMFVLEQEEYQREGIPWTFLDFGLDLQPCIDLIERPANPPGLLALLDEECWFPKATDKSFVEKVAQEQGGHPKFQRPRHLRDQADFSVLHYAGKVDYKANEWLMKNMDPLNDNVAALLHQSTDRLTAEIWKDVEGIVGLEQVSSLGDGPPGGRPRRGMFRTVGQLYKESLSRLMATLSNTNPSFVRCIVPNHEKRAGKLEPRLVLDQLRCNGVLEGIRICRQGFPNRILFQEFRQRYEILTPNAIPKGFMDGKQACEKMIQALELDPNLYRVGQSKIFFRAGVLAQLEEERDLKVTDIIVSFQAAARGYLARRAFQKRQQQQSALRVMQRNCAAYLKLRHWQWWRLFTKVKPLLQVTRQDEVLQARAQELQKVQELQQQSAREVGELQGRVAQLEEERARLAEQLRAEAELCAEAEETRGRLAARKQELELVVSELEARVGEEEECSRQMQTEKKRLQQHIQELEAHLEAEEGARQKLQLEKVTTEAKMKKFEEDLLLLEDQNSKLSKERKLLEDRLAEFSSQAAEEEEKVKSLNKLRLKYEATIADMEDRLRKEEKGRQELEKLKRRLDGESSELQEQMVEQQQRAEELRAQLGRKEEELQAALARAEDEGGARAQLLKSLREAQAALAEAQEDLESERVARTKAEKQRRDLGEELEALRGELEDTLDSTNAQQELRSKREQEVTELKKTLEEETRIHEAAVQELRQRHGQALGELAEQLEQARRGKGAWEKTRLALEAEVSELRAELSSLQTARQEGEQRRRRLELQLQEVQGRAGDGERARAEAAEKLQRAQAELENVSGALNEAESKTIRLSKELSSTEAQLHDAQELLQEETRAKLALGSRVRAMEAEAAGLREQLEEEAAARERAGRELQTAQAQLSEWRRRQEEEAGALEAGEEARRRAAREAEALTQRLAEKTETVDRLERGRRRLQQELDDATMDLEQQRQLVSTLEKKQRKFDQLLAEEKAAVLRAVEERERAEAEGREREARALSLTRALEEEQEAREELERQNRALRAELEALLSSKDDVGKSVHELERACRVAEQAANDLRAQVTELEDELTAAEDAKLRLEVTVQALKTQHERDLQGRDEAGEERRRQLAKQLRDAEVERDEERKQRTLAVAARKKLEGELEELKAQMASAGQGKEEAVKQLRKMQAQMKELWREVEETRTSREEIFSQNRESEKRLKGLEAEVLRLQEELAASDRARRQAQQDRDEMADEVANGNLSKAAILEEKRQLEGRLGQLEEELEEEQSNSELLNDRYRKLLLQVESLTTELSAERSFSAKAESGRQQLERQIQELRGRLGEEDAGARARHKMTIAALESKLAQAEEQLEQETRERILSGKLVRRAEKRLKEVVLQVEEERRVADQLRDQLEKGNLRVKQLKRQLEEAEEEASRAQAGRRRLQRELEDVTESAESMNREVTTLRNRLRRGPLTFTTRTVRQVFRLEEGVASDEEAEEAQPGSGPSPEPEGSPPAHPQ
UniProt P00156: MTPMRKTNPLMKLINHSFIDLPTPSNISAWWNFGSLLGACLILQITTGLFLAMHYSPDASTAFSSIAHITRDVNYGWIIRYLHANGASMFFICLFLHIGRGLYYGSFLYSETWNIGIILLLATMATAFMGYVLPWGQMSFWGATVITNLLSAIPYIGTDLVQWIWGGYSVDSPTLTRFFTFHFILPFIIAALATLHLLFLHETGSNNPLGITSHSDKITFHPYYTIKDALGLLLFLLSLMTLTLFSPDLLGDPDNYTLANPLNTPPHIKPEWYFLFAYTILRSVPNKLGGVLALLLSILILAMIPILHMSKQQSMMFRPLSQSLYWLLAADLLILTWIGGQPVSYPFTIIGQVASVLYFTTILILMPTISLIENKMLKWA

Legend:
Assay in all cases: log2 fold change, soluble protein after heating vs DMSO (PISA); higher = thermal stabilisation; K562 cells, 10 uM, 30 min; active = over 0.2 and 3.5 SD of the protein, either way, in both replicates (recomputed)
[1] = compound: C1=CC=C(C=C1)[C@H](COC2=CC3=C(C=C2)NC(=O)N3)NC(=O)C4=CC=CN(C4=O)CC5=CC(=C(C=C5)F)F
How it was run: (§1)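 K562 cells at 2×10^6 cells/mL were treated with 10 μM compound for 30 min. Aliquots were heated for 3 min across 48°C-58°C, pooled, and extracted in PBS with 0.5% NP-40 at 4°C; soluble protein was the supernatant after 21,000xg for 90 min. Soluble protein was quantified by TMTpro 16plex LC-MS/MS with channel sums equalised, and reported as log2 fold change in thermal stability against DMSO controls, with values from duplicates.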

[2] = compound: CC1=C(SC2=C1C(=N[C@H](C3=NN=C(N32)C)CC(=O)N)C4=CC=C(C=C4)Cl)C
How it was run: as §1

[3] = compound: CC1=C2C(=CC=C1)N=C(N(C2=O)C3=CC=CC=C3C)CN4C=NC5=C(N=CN=C54)N
How it was run: as §1

[4] = compound: Cc1sc2c(c1C)C(c1ccc(Cl)cc1)=N[C@@H](CC(=O)OC(C)(C)C)c1nnc(C)n1-2
How it was run: as §1

[5] = compound: c1ccc([C@@H]2C[C@H]2NC2CCNCC2)cc1
How it was run: as §1

Measured: log2 fold change

MRPS18B (UniProt Q9Y676)
inactive: [1] -0.055 | [2] -0.113 | [3] -0.041 | [4] 0.127 | [5] -0.078

MRPS21 (UniProt P82921)
inactive: [1] -0.238 | [2] 0.032 | [3] 0.013 | [4] 0.116 | [5] -0.016

MRPS28 (UniProt Q9Y2Q9)
inactive: [1] -0.012 | [2] -0.121 | [3] -0.209 | [4] 0.067 | [5] 0.003

MRPS10 (UniProt P82664)
inactive: [1] -0.019 | [2] -0.102 | [3] 0.065 | [4] 0.132 | [5] 0.025

MRRF (UniProt Q96E11)
inactive: [1] -0.028 | [2] 0.035 | [3] 0.014 | [4] 0.026 | [5] 0.048

MTRF1L (UniProt Q9UGC7)
inactive: [1] 0.05 | [2] 0.075 | [3] -0.009 | [4] -0.061 | [5] 0.022

MYO6 isoform 6 (UniProt Q9UM54)
inactive: [1] -0.03 | [2] 0.074 | [3] 0.032 | [4] -0.014 | [5] 0.012

MYH2 (UniProt Q9UKX2)
inactive: [1] 0.11

MXRA8 isoform 2 (UniProt Q9BRK3)
inactive: [1] -0.025 | [2] 0.002 | [3] -0.352 | [4] -0.041 | [5] 0.035

MTMR10 (UniProt Q9NXD2)
inactive: [1] -0.239

MTMR14 (UniProt Q8NCE2)
inactive: [1] 0.03 | [2] 0.047 | [3] 0.156 | [4] -0.011 | [5] 0.069

MTHFD1, A0A384N5Y3
inactive: [1] -0.063 | [2] 0.138 | [3] -0.022 | [4] -0.002 | [5] -0.113

MT-ND3 (UniProt P03897)
inactive: [1] -0.001

MRPS15 (UniProt P82914)
inactive: [1] -0.035 | [2] 0.077 | [3] -0.056 | [4] 0.066 | [5] -0.097

MYCBP (UniProt Q99417)
inactive: [1] 0.018 | [2] 0.035 | [3] 0.046 | [4] -0.009 | [5] 0.035

MYH15 (UniProt Q9Y2K3)
inactive: [1] 0.574

MRPS16 (UniProt Q9Y3D3)
inactive: [1] -0.006 | [2] -0.033 | [3] -0.009 | [4] 0.014 | [5] -0.074

MT-ND5 (UniProt P03915)
inactive: [1] -0.005 | [2] -0.075 | [3] -0.072 | [4] -0.136 | [5] 0.066

MUC7 (UniProt Q8TAX7)
inactive: [1] -0.037

MYL1 (UniProt P05976)
inactive: [1] 0.041

MTFR1L (UniProt Q9H019)
inactive: [1] -0.036 | [2] -0.009 | [3] 0.066 | [4] 0.048 | [5] 0.028

MRPS25 (UniProt P82663)
inactive: [1] -0.002 | [2] -0.05 | [3] -0.067 | [4] 0.059 | [5] 0.014

MTSS2 (UniProt Q765P7)
inactive: [1] 0.008 | [2] 0.132 | [3] 0.007 | [4] 0.027 | [5] 0.029

MT1G (UniProt P13640)
inactive: [1] 0.003 | [2] -0.045 | [3] -0.124 | [4] 0.053 | [5] 0.117

MYH14 isoform 2 (UniProt Q7Z406)
inactive: [1] -0.006 | [2] -0.002 | [3] -0.021 | [4] 0.004 | [5] 0.01

MYH10 isoform 3 (UniProt P35580)
inactive: [1] -0.003 | [2] 0.043 | [3] 0.056 | [4] -0.023 | [5] -0.013

MSI1 (UniProt O43347)
inactive: [1] -0.008 | [2] -0.108 | [3] -0.072 | [4] 0.166 | [5] -0.03

2 entries picked at random from those above, as already listed:
MRPS16 (UniProt Q9Y3D3)
inactive: [1] -0.006 | [2] -0.033 | [3] -0.009 | [4] 0.014 | [5] -0.074

MRRF (UniProt Q96E11)
inactive: [1] -0.028 | [2] 0.035 | [3] 0.014 | [4] 0.026 | [5] 0.048

Following part

MT-CYB (UniProt P00156)
inactive: [1] 0.024 | [2] 0.079 | [3] 0.013 | [4] -0.057 | [5] 0.122
